The values below come from US20180022828A1.

Results are given in words; binding and its absence hold for the method and conditions named. Some binding calls cover weakened binding; strength is not graded here.

The assay concerns the target ErbB2-Fc fusion protein (R&D Systems) (UniProt P04626). Kind of assay: FACS of transduced NK cells stained with ErbB2-Fc fusion protein, then APC-conjugated anti-human Fc F(ab)2.

B1: ErbB2-specific CAR containing the modified CD8 alpha-chain hinge region and CD28 and CD3 zeta-chain signaling domains (protein)
chain: QVQLQQSGPELKKPGETVKISCKASGYPFTNYGMNWVKQAPGQGLKWMGWINTSTGESTFADDFKGRFDFSLETSANTAYLQINNLKSEDSATYFCARWEVYHGYVPYWGQGTTVTVSSGGGGSGGGGSGGGGSDIQLTQSHKFLSTSVGDRVSITCKASQDVYNAVAWYQQKPGQSPKLLIYSASSRYTGVPSRFTGSGSGPDFTFTISSVQAEDLAVYFCQQHFRTPFTFGSGTKLEIKALSNSIMYFSHFVPVFLPAKPTTTPAPRPPTPAPTIASQPLSLRPEASRPAAGGAVHTRGLDKPFWVLVVVGGVLACYSLLVTVAFIIFWVRSKRSRLLHSDYMNMTPRRPGPTRKHYQPYAPPRDFAAYRSRVKFSRSADAPAYQQGQNQLYNELNLGRREEYDVLDKRRGRDPEMGGKPRRKNPQEGLYNELQKDKMAEAYSEIGMKGERRRGKGHDGLYQGLSTATKDTYDALHMQALPPR
On to B1, for which the binding entry was “binds”.

B2: ErbB2-specific CAR containing the modified CD8 alpha-chain hinge region and the transmembrane and intracellular domains of human CD3 zeta-chain (protein)
chain: QVQLQQSGPELKKPGETVKISCKASGYPFTNYGMNWVKQAPGQGLKWMGWINTSTGESTFADDFKGRFDFSLETSANTAYLQINNLKSEDSATYFCARWEVYHGYVPYWGQGTTVTVSSGGGGSGGGGSGGGGSDIQLTQSHKFLSTSVGDRVSITCKASQDVYNAVAWYQQKPGQSPKLLIYSASSRYTGVPSRFTGSGSGPDFTFTISSVQAEDLAVYFCQQHFRTPFTFGSGTKLEIKALSNSIMYFSHFVPVFLPAKPTTTPAPRPPTPAPTIASQPLSLRPEASRPAAGGAVHTRGLDPKLCYLLDGILFIYGVILTALFLRVKFSRSADAPAYQQGQNQLYNELNLGRREEYDVLDKRRGRDPEMGGKPRRKNPQEGLYNELQKDKMAEAYSEIGMKGERRRGKGHDGLYQGLSTATKDTYDALHMQALPPR
For B2, the binding result is given as “binds”.

B3: ErbB2-specific CAR containing the unmodified CD8 alpha-chain hinge region and the transmembrane and intracellular domains of human CD3 zeta-chain (protein)
chain: QVQLQQSGPELKKPGETVKISCKASGYPFTNYGMNWVKQAPGQGLKWMGWINTSTGESTFADDFKGRFDFSLETSANTAYLQINNLKSEDSATYFCARWEVYHGYVPYWGQGTTVTVSSGGGGSGGGGSGGGGSDIQLTQSHKFLSTSVGDRVSITCKASQDVYNAVAWYQQKPGQSPKLLIYSASSRYTGVPSRFTGSGSGPDFTFTISSVQAEDLAVYFCQQHFRTPFTFGSGTKLEIKALSNSIMYFSHFVPVFLPAKPTTTPAPRPPTPAPTIASQPLSLRPEACRPAAGGAVHTRGLDPKLCYLLDGILFIYGVILTALFLRVKFSRSADAPAYQQGQNQLYNELNLGRREEYDVLDKRRGRDPEMGGKPRRKNPQEGLYNELQKDKMAEAYSEIGMKGERRRGKGHDGLYQGLSTATKDTYDALHMQALPPR
For B3, the binding entry is on record as “binds”.
